For one substance, binding results are on record in publication PMC5836524.

Chains of the proteins cited; added tags and fusions are not shown.
UniProt Q00610: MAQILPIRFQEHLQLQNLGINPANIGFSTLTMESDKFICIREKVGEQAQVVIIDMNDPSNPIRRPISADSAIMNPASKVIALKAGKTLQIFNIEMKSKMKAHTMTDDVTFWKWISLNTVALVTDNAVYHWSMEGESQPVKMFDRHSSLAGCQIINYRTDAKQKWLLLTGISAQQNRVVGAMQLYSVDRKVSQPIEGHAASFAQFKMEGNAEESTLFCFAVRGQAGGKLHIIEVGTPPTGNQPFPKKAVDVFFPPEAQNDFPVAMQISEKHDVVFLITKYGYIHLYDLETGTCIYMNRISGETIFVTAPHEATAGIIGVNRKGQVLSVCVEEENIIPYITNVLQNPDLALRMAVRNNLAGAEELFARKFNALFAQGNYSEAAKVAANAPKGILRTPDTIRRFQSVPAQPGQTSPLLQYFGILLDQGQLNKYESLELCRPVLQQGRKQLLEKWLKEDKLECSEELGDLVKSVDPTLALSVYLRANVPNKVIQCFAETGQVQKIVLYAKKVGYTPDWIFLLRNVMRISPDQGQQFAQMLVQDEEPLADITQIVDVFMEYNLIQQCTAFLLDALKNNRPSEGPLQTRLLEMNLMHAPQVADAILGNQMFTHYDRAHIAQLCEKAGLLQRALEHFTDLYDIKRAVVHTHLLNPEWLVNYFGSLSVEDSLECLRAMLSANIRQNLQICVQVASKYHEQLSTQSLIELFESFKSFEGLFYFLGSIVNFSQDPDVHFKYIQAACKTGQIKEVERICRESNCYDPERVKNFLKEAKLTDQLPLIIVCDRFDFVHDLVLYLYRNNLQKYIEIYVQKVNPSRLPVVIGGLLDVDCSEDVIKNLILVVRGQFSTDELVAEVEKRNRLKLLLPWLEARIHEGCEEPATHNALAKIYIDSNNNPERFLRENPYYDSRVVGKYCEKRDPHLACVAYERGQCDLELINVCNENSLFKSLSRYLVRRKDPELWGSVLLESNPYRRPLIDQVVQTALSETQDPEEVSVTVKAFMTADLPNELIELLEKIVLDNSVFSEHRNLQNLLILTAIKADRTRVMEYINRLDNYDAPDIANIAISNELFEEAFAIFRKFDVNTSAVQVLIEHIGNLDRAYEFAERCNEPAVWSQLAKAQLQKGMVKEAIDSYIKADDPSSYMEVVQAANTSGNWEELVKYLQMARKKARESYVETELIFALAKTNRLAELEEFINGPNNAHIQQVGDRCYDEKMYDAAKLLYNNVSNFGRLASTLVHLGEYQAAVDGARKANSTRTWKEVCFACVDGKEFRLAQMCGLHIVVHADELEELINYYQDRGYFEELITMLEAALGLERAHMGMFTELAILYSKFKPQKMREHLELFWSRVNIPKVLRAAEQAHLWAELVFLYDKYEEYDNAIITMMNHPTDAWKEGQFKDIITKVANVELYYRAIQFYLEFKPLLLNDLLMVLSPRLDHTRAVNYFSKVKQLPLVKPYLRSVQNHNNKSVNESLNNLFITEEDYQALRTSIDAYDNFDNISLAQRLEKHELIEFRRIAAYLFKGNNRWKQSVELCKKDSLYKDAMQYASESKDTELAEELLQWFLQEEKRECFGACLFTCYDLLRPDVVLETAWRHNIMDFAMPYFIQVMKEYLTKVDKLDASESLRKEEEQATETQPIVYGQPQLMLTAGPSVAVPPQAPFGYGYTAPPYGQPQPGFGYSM

These are yes or no findings as the source states them, for the method shown. Binding seen in cells or lysates may run through a third protein. Some results given as binding are weak or reduced against the parent protein; the word gives no strength. Sequences can lack the tags named with a protein.

Assay in all cases: co-IP; EGFP-tagged Eps15R, its truncations or mutant, EGFP-Eps15 or EGFP immunoprecipitated from HeLa cell extract (20 mM HEPES pH 7.4, 100 mM NaCl, 0.5 mM TCEP, 0.1% NP-40; 4°C); immunoblot for clathrin, AP2 β-adaptin and EGFP
On the technique in general: Immunoblotting shows a protein as a band on a membrane.

The target of assay [1] is T1, EGFP-Eps15R aa 1-747 (Δ proline-rich region) (mouse) (UniProt Q60902).
T1 sequence: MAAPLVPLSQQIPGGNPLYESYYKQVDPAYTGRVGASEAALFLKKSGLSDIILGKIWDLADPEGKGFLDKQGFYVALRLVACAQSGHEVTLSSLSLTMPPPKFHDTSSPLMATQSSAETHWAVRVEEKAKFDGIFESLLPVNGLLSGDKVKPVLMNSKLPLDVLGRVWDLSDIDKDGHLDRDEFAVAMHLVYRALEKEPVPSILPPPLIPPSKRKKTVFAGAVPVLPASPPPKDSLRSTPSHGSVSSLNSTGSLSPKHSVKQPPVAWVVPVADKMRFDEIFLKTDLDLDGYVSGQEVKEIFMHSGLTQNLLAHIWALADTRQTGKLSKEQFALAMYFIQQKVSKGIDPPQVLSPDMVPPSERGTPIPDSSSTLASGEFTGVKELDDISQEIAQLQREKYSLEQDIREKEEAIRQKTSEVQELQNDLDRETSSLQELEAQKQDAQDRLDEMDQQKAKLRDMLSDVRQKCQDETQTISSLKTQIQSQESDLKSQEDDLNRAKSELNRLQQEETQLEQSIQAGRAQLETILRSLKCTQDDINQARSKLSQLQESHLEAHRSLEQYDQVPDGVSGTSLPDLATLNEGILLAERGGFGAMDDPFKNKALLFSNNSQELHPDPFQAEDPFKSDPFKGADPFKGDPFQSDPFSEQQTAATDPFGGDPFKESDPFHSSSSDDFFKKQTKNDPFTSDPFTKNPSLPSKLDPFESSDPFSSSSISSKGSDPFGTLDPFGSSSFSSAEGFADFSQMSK

The target in assay [2] is T2, EGFP-Eps15R aa 1-596 (Δ motif domain) (mouse) (UniProt Q60902).
T2 sequence: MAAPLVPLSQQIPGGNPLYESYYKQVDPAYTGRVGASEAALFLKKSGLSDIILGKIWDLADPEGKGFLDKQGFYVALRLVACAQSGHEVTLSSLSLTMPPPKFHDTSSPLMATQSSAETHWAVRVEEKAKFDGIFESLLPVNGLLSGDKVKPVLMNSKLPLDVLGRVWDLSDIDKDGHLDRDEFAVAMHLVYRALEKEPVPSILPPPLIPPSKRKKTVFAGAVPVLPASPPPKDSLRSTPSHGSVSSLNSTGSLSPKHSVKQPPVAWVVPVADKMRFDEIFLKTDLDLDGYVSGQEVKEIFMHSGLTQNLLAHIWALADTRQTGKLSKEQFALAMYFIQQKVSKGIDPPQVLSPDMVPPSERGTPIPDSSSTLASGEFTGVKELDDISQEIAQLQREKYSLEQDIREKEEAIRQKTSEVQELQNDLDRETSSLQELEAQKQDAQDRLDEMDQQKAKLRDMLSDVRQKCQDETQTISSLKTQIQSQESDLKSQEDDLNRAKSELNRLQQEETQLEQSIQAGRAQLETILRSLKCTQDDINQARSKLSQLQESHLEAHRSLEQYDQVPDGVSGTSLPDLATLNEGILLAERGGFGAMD

Assay [3] concerns the target T3, EGFP-Eps15R F703A/F722A/F728A triple mutant (mouse) (UniProt Q60902).
T3 sequence: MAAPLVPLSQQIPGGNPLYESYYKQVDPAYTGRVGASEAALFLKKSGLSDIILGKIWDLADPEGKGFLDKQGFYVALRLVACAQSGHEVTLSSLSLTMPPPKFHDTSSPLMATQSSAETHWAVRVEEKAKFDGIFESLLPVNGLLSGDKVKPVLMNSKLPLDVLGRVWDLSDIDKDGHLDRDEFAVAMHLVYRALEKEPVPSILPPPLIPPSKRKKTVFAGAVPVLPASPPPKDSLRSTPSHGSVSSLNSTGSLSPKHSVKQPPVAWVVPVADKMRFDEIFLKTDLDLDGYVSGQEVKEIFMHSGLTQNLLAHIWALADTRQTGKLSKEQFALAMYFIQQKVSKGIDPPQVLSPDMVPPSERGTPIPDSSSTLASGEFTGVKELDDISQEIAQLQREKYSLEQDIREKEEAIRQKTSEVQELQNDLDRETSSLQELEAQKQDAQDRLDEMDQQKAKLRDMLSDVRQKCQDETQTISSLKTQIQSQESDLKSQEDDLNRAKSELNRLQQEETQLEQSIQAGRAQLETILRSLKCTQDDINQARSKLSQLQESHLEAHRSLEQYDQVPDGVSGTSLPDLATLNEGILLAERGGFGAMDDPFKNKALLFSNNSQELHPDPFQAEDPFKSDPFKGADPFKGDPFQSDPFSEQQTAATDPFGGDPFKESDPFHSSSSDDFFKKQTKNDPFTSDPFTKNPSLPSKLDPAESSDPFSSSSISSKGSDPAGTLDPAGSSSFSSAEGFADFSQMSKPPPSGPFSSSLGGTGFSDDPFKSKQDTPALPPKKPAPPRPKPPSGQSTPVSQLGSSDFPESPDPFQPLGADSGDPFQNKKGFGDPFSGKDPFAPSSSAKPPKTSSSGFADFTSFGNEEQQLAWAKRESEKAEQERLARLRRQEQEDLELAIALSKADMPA

For the substance “clathrin (endogenous, detected by blot for clathrin heavy chain) (from UniProt Q00610 1-1675)”, the values for the binding result in assay [1], in assay [2] and in assay [3] were “binds”, “no binding” and “binds”, respectively.
